This test concerns the target T1, recombinant huADAM10D+C protein (human, UniProt O14672 455-646).
T1 construct: the whole entry is named here (the bovine construct was 455-646); also called huADAM10D+C domain protein; immobilised recombinant huADAM10D+C
T1 sequence: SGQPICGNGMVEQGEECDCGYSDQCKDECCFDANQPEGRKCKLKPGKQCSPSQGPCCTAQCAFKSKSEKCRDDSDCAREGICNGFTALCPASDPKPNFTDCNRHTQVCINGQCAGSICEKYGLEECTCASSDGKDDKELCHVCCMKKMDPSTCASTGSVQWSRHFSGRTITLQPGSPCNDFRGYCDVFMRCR
Put plainly: SPR, BIAcore 3000.

These are yes or no findings as the source states them, for the method shown. Some binding calls cover weakened binding; strength is not graded here.

B1: hu8C7, fully humanised version of 8C7 (antibody, human IgG1, kappa, V domains shown)
VH: EVQLQQSGAELAKPGSSVKLSCKASGYTFTNYWLQWVKQRPGQGLEWIGAIYPRDGDAKYSQKFKDKASITVNESTSTAYMHLSSLRSEDTAVYYCARANYGLYYAMDRWGQGTTVTVSS
VL: DIVLTQSPAFMSVSPGERVSVSCRASQNIGTNIHWYQQRPDQSPRLLIKYASESISGIPSRFSGSGSGTDFYLTINSVESEDIAVYFCQQSNRWPFTFGSGTKLEVKR
notes: Human IgG1-kappa; humanised variable domains replaced the murine ones in the ch8C7 constructs; The exact V/C junction is not described; also called humanized 8C7
Regarding B1, the binding result is recorded as “binds”.
